According to patent publication US20250115676A1:
Numbering of substitutions follows the chain as printed. Results are given in words; binding and its absence hold for the method and conditions named. A result given as binding can be weak or reduced; the word gives no strength.

B1: hMAB-A (2J.2) (antibody, V domains shown)
VH: EVQLVESGGGLVKPGGSLRLSCAASGFTFSSYWMHWVRQAPGKGLEWVGEIIPIFGHTNYNEKFKSRFTISLDNSKNTLYLQMGSLRAEDTAVYYCARGGYYYYYNSGTLDYWGQGTTVTVSS
VL: DIVMTQSPDSLAVSLGERATISCKASQSVDYSGDSYMNWYQQKPGQPPKLLIYAASDLESGIPARFSGSGSGTDFTLTISSLEPEDFATYYCQQSHEDPFTFGQGTKLEIK
B2: hMAB-A (2D.2) (antibody, V domains shown)
VH: B1 VH with Y105T, N106G, S107K, T109V
VL: B1 VL
B3: hMAB-A (2A.2) (antibody, V domains shown)
VH: B1 VH with Y105F
VL: B1 VL
B4: hMAB-A (2C.2) (antibody, V domains shown)
VH: B1 VH with Y105P, N106R, S107F, T109W
VL: B1 VL
B5: hMAB-A (2E.2) (antibody, V domains shown)
VH: B1 VH with Y105D, N106S, S107N, G108A, T109V
VL: B1 VL
B6: hMAB-A (2B.2) (antibody, V domains shown)
VH: B1 VH with Y105I, N106G, S107K, T109V
VL: B1 VL
B7: hMAB-A (2H.2) (antibody, V domains shown)
VH: B1 VH with Y105G, N106G, T109V
VL: B1 VL
B8: hMAB-A (2G.2) (antibody, V domains shown)
VH: B1 VH with Y105F, S107K, G108A, T109V
VL: B1 VL
B9: hMAB-A (2F.2) (antibody, V domains shown)
VH: B1 VH with Y105F, N106H
VL: B1 VL

Each binder was assayed against cynoADAM9-His (His peptide-tagged soluble cynoADAM9) (cynomolgus monkey) (assay: ELISA on cynoADAM9-His captured by anti-His antibody).

binding	Binder
binds	B1
binds	B2
binds	B3
binds	B4
binds	B5
binds	B6
binds	B7
binds	B8
binds	B9

What follows are binders tested against cynoADAM9-His (His peptide-tagged soluble cynoADAM9) (cynomolgus monkey) (assay: ELISA (RLU): cynoADAM9-His (1 µg/mL) captured by plate-coated anti-His antibody, serial dilutions of the antibody, about 0.03 to 1 µg/ml).

binding	Binder
binds	B1
binds	B2
binds	B3
binds	B4
binds	B5
binds	B6
binds	B7
binds	B8
binds	B9
